In PubChem BioAssay AID1347131 (National Center for Advancing Translational Sciences (NCATS), 2019):
Screen size: about 410,000 compounds; about 2,000 (0.49%) were called active. This list was built around the results that the source calls inconclusive (neither active nor inactive); the mix of calls is not that of the screen. The call rests on the fitted dose curve; tested in HEK293 reporter line. A potency beside an inconclusive call is a rough fit, not a confirmed value.
Potency means the concentration at half of the fitted maximal effect.

Experiment: qHTS Assay for Foot and Mouth Disease Virus Antivirals: Primary Screen against the MLPCN compound library; further: nearly all actives have a fitted effect of over 55% in size
Settings: FMDV antiviral cell-based qHTS; series mostly up to 57.9 µM
For `CNc1nc(NCCCN2CCCC2=O)c2sccc2n1`, the Potency was inconclusive: 8.91 µM [inhibitor, partial curve]. With `O=C(/C=C/c1cccs1)N1CCC2(CC1)Oc1ccc(Cl)cc1C(=O)C21CC(c2cccnc2)=NO1` (centres undefined) the Potency was “inactive”. In the case of `CCn1c(SCC(=O)N/N=C/c2c[nH]c3ccccc23)nnc1-c1ccc(Cl)cc1`, the Potency is reported as “inactive”. For `CCCC(c1nnnn1Cc1ccc(OC)cc1)N1CCN(c2ccccc2OC)CC1` (centres undefined), the Potency was inconclusive: 35.5 µM [inhibitor, partial curve, poor fit]. For `C/C(=N\NC(=O)C(C)Oc1ccc([N+](=O)[O-])cc1)c1ccccn1` (centres undefined), the Potency was inconclusive: 2.51 µM [inhibitor, partial curve, poor fit]. For `COC(=O)CN1C(=O)Nc2ccc(Br)cc2C1c1ccccc1` (centres undefined), the Potency was inconclusive: 14.1 µM [inhibitor, partial curve]. For `O=C(NCCc1ccccn1)c1cc(-c2ccccc2Cl)nc2ccccc12`, the Potency was inconclusive: 28.2 µM [inhibitor, partial curve, poor fit]. In the case of `CC1=CC(=O)C=C(C)C1=NOS(=O)(=O)c1ccccc1`, the Potency is reported as inconclusive: 14.1 µM [inhibitor, partial curve, poor fit]. For `CCCCCCCCCCn1c2c(c(=N)c3c1CCC3)CCC2`, the Potency was inconclusive: 17.8 µM [inhibitor, partial curve, poor fit]. With `COc1ccc(-c2cn(-c3ccc(OC)cc3)c3[n+]2-c2ccccc2CC3)cc1` the Potency was inconclusive: 15.8 µM [inhibitor, partial curve, poor fit]. For `COc1ccc(C(=O)Nc2nc3ccccc3[nH]2)cc1`, the Potency was inconclusive: 12.6 µM [inhibitor, partial curve, poor fit]. With `CC(C)c1ccc(-n2nc3ccc(N)cc3n2)cc1` the Potency was inconclusive: 12.6 µM [inhibitor, single point]. For `O=C(O)c1ccc(NC(=S)NC(=O)c2cncc(Br)c2)cc1`, the Potency was inconclusive: 10 µM [inhibitor, partial curve, poor fit]. With `Cc1ccsc1/C=C1\CCC(C2CCCC2)C1=O` (centres undefined) the Potency was inconclusive: 35.5 µM [inhibitor, single point]. For `COc1ccc(NC(=O)C2=CC(c3ccc(OC)c(OC)c3)=NS(=O)(=O)N2C)cc1`, the Potency was inconclusive: 31.6 µM [inhibitor, partial curve, poor fit]. In the case of `CCC1(c2cccc(Cl)c2)NC(=O)N(Cc2cc(C(=O)OC)c(C)o2)C1=O` (centres undefined), the Potency is reported as inconclusive: 28.2 µM [inhibitor, partial curve, poor fit]. For `COc1ccc(N=Nc2ccc3ccccc3c2)c(O)c1`, the Potency was active: 22.4 µM. For `COc1ccc(/C=C2/CCCc3ccccc3C2=O)cc1`, the Potency was inconclusive: 39.8 µM [inhibitor, single point]. For `COc1ccc(O)c(C2Nc3ccccc3-n3c(-c4ccccc4)c4c(=O)n(C)c(=O)n(C)c4c32)c1` (centres undefined), the Potency was inconclusive: 39.8 µM [inhibitor, partial curve, poor fit]. In the case of `C/C(=N\NC(=S)Nc1cc(S(=O)(=O)N2CCOCC2)ccc1Cl)c1ccccc1F`, the Potency is reported as inconclusive: 12.6 µM [inhibitor, partial curve, poor fit]. For `Cc1cccc(/C(N)=N/OC(=O)c2ccc3c(c2)OCO3)c1`, the Potency was inconclusive: 22.4 µM [inhibitor, single point]. For `COc1ccc(CN(CCC(c2ccccc2)c2ccc(OC(C)C)cc2)C(=O)CCl)cc1OC` (centres undefined), the Potency was inconclusive: 4.47 µM [inhibitor, full curve, poor fit]. With `COc1ccc(CNC(=O)COC(=O)c2n[nH]c3ccccc23)cc1OC` the Potency was inconclusive: 11.2 µM [inhibitor, partial curve, poor fit]. For `O=C(CCCc1nc(-c2ccc(Cl)cc2)no1)NC1CCCC1`, the Potency was “inactive”. In the case of `N#Cc1ccc(C(=O)Nc2ccn(-c3ccccc3)n2)cc1`, the Potency is reported as inconclusive: 25.1 µM [inhibitor, single point]. In the case of `FC(F)(F)c1cccc(CNC2c3ccccc3-c3ccccc32)c1`, the Potency is reported as inconclusive: 31.6 µM [inhibitor, partial curve, poor fit]. In the case of `CC(=O)c1cccc(NC(=O)CSc2ccc(-c3cccnc3)nn2)c1`, the Potency is reported as inconclusive: 35.5 µM [inhibitor, partial curve, poor fit]. In the case of `Cn1c(N)c(C(=O)CSc2nn(-c3ccc(F)cc3)c(=S)s2)c(=O)n(C)c1=O`, the Potency is reported as inconclusive: 15.8 µM [inhibitor, partial curve, poor fit]. In the case of `O=c1[nH]c(SCc2ccccc2Cl)nc2c1cnn2-c1ccccc1`, the Potency is reported as “inactive”. For `CCOc1ccc(NS(=O)(=O)c2ccc3c(c2)CCN3C(C)=O)cc1`, the Potency was inconclusive: 39.8 µM [inhibitor, partial curve, poor fit]. For `c1ccc(CCn2c(C3CC3)nc3ccccc32)cc1`, the Potency was inconclusive: 22.4 µM [inhibitor, single point]. In the case of `COc1ccc(-c2csc(NC(=O)c3ccccc3S(C)(=O)=O)n2)cc1`, the Potency is reported as inconclusive: 25.1 µM [inhibitor, partial curve, poor fit]. In the case of `Clc1ccc(C(c2ccc(Cl)cc2)C(Cl)(Cl)Cl)cc1`, the Potency is reported as inconclusive: 3.55 µM [inhibitor, partial curve, poor fit]. For `O=C(c1cccc(C(=O)N2CCN(c3ccc(F)cc3)CC2)c1)N1CCN(c2ccc(F)cc2)CC1`, the Potency was inconclusive: 39.8 µM [inhibitor, partial curve, poor fit]. With `COc1cccc(-n2c(C)nc3c(cnn3-c3ccc(C)cc3)c2=O)c1` the Potency was inconclusive: 11.2 µM [inhibitor, partial curve]. In the case of `COc1cc(F)ccc1-c1cc(C(=O)Nc2ccc(C)c(NS(C)(=O)=O)c2)[nH]n1`, the Potency is reported as inconclusive: 25.1 µM [inhibitor, partial curve, poor fit]. With `O=C1/C(=C/c2cccnc2)Oc2cc(OS(=O)(=O)c3ccc(F)cc3)ccc21` the Potency was inconclusive: 22.4 µM [inhibitor, partial curve, poor fit]. For `COc1cccc(CN(C)C(=O)c2cc(COc3ccc(-n4cncn4)cc3)on2)c1`, the Potency was inconclusive: 22.4 µM [inhibitor, single point]. For `COCCn1c(SCC(=O)Nc2ccc(Cl)c(S(=O)(=O)N(C)C)c2)nc2ccccc21`, the Potency was inconclusive: 28.2 µM [inhibitor, partial curve, poor fit]. In the case of `C=CCN=C1NN=C(c2ccc3c(c2)OCCO3)CS1`, the Potency is reported as inconclusive: 8.91 µM [inhibitor, partial curve, poor fit]. With `Cc1ccc(NC(=O)CCC(=O)OCC(=O)c2ccc(Oc3ccc([N+](=O)[O-])cc3)cc2)c(C)c1` the Potency was inconclusive: 10 µM [inhibitor, partial curve]. For `CN(C)N(Cc1ccccc1)C(=O)C(O)(c1ccccc1)c1ccccc1`, the Potency was “inactive”. In the case of `CC(=O)Nc1ccc(C(=O)Nc2nc(-c3cc(C)n(Cc4ccccc4)c3C)cs2)cc1`, the Potency is reported as inconclusive: 22.4 µM [inhibitor, partial curve, poor fit]. For `CSc1nc2ccccc2n1C(=O)NC1CCCCC1`, the Potency was “inactive”. In the case of `CCC(=O)Nc1cc2nn(-c3ccc(C)cc3)nc2cc1C`, the Potency is reported as inconclusive: 6.31 µM [inhibitor, full curve, poor fit]. In the case of `COC(=O)CCSc1cc(NCCOC(C)=O)c([N+](=O)[O-])c2nonc12`, the Potency is reported as inconclusive: 35.5 µM [inhibitor, partial curve, poor fit]. In the case of `Oc1ccc(N=Nc2ccc3c(c2)OCCO3)c2ncccc12`, the Potency is reported as inconclusive: 3.98 µM [inhibitor, partial curve, poor fit]. In the case of `COc1ccc(C(c2c(C)[nH]n(C(N)=S)c2=O)C(C#N)C#N)cc1` (centres undefined), the Potency is reported as inconclusive: 25.1 µM [inhibitor, partial curve, poor fit]. For `Cc1ccccc1C(c1c(C)n(C)n(-c2ccccc2)c1=O)c1c(C)n(C)n(-c2ccccc2)c1=O`, the Potency was “inactive”. With `COc1cc(-c2nnc(SCC(=O)N3c4ccccc4Sc4ccccc43)o2)cc(OC)c1OC` the Potency was inconclusive: 5.01 µM [inhibitor, partial curve]. For `C=C(C)Cn1c(-c2ccccc2)nc2ccccc21`, the Potency was inconclusive: 14.1 µM [inhibitor, partial curve, poor fit]. In the case of `CC1(C)Cc2ccccc2-c2nnc(SCC(=O)N3CCN(c4ccccc4)CC3)n21`, the Potency is reported as active: 7.94 µM. With `Cc1ccc(OCC(=O)Nc2ccc3c(c2)nc(CCN2CCN(c4ccccn4)CC2)n3C)cc1` the Potency was inconclusive: 3.55 µM [inhibitor, partial curve, poor fit]. In the case of `O=C(Nc1ccc2[nH]ccc2c1)c1ccc(F)cc1`, the Potency is reported as inconclusive: 14.1 µM [inhibitor, single point]. With `C=CCn1c(=NC(=O)c2cccc(N3C(=O)CCC3=O)c2)sc2cccc(OC)c21` the Potency was inconclusive: 12.6 µM [inhibitor, partial curve, poor fit]. For `COc1cc(NC(=S)Nc2cccc(Cl)c2Cl)c(OC)cc1Cl`, the Potency was inconclusive: 28.2 µM [inhibitor, single point]. In the case of `c1ccc(COc2ncnc3c2ncn3CCCN2CCN(Cc3cccc4ccccc34)CC2)cc1`, the Potency is reported as inconclusive: 28.2 µM [inhibitor, partial curve, poor fit]. For `O=Cc1s/c(=N\S(=O)(=O)c2ccccc2)n(CCCCl)c1Cl`, the Potency was inconclusive: 7.94 µM [inhibitor, full curve, poor fit]. In the case of `CCS(=O)(=O)c1ccc(Sc2nncn2C)c([N+](=O)[O-])c1`, the Potency is reported as inconclusive: 31.6 µM [inhibitor, partial curve, poor fit].
